One assay deals with T1, Gluc1-ΔN(262–348) (UniProt O15350).
T1 sequence: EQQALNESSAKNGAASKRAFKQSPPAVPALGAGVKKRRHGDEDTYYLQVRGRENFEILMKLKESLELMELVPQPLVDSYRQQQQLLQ
The experiment in a line: split reporter.

Protein sequences, listed by entry. Tags and fused reporters are not part of them. Lines headed by an entry give the natural chain unless they say otherwise; changes in a name come on top.
UniProt Q08999: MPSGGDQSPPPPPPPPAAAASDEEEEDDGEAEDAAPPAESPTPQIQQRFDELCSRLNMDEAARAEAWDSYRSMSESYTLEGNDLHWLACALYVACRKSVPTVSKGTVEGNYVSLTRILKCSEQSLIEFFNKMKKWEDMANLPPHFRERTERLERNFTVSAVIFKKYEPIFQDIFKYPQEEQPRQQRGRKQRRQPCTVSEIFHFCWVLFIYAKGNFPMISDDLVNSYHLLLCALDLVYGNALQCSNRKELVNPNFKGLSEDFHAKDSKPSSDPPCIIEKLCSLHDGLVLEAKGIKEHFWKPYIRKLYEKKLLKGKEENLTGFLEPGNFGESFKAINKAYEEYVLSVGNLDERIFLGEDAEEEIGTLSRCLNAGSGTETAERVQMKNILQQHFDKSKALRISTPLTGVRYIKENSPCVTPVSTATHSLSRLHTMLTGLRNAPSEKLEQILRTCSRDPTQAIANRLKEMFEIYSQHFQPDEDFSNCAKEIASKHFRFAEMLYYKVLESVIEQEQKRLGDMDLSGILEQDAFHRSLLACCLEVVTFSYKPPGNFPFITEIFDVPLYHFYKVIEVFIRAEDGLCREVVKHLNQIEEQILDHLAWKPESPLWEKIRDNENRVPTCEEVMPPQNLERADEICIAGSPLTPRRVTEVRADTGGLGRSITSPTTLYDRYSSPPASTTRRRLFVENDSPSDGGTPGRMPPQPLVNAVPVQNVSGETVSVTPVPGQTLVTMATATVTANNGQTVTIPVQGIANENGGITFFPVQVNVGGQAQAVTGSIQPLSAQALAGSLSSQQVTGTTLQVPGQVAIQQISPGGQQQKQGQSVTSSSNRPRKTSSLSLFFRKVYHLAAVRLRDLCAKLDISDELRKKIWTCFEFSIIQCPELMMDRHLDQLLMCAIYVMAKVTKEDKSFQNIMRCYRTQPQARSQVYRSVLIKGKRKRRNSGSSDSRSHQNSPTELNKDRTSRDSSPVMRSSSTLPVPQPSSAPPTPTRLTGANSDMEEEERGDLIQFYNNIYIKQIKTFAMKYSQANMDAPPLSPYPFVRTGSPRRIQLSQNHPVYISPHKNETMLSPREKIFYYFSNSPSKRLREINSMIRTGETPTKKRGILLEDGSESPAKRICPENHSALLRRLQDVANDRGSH
UniProt Q16254: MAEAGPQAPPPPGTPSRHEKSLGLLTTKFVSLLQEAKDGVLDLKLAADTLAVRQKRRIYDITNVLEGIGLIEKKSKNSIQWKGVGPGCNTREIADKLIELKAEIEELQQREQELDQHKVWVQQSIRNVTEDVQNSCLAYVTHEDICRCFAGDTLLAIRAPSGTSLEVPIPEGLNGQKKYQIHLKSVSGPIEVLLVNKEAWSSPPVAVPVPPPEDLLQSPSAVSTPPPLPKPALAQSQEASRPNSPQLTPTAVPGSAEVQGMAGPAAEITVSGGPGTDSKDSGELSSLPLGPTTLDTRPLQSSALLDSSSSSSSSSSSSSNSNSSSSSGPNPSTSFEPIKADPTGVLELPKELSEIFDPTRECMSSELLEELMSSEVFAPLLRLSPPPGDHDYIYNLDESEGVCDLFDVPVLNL
UniProt P03129: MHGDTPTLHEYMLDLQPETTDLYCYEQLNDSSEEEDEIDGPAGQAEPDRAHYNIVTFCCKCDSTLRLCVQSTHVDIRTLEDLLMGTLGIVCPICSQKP
UniProt Q14186: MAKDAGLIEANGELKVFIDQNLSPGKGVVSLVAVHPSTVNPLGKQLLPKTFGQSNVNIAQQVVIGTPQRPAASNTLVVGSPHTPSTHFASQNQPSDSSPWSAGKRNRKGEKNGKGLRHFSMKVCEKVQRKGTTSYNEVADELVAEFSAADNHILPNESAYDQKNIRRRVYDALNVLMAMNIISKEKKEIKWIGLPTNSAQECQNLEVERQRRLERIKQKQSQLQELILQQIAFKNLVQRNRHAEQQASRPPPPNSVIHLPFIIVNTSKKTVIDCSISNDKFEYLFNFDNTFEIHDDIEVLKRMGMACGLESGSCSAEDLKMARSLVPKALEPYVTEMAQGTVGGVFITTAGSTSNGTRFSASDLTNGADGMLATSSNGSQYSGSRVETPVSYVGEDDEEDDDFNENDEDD

The target of a further assay is T2, Gluc1-ΔN(14–348) (UniProt O15350).
T2 sequence: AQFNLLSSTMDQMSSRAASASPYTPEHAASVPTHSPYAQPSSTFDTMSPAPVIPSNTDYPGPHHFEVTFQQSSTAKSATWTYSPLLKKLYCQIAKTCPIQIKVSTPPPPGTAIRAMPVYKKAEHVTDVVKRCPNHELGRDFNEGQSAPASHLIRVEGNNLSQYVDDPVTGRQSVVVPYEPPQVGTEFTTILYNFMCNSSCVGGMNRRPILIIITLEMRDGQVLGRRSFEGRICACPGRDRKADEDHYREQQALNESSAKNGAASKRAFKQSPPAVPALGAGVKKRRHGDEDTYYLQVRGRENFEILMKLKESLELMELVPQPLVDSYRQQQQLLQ
In words: split reporter.

The target in the next assay is T3, Gluc1-TAp63α (UniProt Q9H3D4).
T3 sequence: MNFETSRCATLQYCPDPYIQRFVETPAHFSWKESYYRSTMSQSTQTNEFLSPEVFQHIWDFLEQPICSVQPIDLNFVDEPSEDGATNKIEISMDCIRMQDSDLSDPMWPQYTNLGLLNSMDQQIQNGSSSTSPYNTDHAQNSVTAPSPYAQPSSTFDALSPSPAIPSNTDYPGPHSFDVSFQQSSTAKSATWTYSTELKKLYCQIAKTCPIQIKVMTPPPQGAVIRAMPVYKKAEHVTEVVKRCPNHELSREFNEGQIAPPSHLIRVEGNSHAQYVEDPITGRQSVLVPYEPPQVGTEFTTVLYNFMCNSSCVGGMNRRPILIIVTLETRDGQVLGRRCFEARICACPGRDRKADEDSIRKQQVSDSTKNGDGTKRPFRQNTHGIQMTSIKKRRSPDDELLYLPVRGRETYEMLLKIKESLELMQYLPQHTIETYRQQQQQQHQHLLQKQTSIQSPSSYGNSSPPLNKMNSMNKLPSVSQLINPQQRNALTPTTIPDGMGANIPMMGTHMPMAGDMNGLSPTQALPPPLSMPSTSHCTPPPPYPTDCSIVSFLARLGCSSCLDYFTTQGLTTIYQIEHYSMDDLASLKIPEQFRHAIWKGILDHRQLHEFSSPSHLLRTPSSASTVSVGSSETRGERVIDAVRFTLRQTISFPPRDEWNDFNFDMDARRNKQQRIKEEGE
The experiment in a line: split reporter.

Another assay addresses T4, Gluc1-ΔN(1–348) (UniProt O15350).
T4 sequence: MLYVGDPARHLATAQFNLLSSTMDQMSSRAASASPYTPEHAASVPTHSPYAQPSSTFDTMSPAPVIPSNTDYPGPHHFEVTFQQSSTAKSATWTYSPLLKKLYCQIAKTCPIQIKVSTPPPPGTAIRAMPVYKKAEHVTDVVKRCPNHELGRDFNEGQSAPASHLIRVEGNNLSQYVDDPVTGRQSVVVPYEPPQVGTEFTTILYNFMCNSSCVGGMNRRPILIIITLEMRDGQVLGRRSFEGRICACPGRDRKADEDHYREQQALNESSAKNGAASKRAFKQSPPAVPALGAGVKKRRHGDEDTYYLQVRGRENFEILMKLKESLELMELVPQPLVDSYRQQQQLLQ
The experiment in a line: split reporter.

For the next assay, the target named is Gluc1-ΔNp73α FL (UniProt O15350). In words: split reporter.
In the next assay the target is T5, Gluc2-p107 (UniProt P28749).
T5 sequence: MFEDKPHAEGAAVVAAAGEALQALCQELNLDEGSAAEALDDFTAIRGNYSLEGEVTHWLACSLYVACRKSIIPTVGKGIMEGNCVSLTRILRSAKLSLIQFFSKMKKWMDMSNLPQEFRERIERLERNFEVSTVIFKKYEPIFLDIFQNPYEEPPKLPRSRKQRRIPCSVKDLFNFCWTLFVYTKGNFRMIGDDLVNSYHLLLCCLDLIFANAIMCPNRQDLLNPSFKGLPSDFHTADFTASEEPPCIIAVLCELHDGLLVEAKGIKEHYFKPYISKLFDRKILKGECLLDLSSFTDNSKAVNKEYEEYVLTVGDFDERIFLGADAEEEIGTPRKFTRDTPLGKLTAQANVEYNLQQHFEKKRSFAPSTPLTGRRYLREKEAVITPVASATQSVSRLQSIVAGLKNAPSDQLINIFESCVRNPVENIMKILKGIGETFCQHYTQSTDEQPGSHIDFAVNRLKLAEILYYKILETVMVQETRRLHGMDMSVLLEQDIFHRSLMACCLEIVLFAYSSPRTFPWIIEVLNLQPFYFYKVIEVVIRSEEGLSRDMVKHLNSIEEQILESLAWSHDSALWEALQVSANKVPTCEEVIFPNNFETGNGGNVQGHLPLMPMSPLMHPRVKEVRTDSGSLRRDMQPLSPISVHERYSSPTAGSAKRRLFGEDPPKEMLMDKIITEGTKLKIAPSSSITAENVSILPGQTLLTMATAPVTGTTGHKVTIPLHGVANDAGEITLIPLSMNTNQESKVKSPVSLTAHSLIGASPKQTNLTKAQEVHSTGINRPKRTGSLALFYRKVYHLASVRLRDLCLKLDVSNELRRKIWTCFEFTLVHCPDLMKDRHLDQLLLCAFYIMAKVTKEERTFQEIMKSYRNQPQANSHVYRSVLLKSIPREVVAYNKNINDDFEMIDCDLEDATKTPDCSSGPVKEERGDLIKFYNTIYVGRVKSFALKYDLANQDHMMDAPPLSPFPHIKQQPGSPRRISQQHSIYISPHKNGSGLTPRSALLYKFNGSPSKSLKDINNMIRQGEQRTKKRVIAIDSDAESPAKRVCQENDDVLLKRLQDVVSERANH
In words: split reporter.

In another assay the target is Gluc2-p130 (human) (UniProt Q08999). The experiment in a line: split reporter.
The next assay addresses T6, Gluc2-pRb (UniProt P06400).
T6 sequence: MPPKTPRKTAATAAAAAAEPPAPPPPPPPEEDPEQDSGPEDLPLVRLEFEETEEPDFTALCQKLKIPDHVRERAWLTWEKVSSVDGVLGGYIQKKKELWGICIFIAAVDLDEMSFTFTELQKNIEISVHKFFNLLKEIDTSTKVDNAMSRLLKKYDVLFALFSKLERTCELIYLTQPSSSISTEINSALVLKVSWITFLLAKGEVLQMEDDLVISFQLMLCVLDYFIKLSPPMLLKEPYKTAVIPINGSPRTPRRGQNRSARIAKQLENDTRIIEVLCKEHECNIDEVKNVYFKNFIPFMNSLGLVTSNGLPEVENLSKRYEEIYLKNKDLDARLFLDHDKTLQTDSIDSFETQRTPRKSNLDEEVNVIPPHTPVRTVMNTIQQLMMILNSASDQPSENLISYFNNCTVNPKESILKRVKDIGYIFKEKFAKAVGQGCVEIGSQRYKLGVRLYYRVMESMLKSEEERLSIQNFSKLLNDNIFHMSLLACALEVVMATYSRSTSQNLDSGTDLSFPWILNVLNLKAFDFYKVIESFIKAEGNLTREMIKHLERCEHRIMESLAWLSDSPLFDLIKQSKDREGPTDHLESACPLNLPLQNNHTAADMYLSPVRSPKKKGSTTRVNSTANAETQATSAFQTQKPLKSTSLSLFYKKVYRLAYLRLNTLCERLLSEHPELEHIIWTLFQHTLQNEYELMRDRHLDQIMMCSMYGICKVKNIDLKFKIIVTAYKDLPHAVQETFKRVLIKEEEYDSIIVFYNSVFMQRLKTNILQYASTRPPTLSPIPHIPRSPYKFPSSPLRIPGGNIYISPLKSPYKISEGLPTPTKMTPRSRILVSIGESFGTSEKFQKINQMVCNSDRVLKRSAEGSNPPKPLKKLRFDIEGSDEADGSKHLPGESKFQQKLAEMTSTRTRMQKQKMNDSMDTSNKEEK
The experiment in a line: split reporter.

The next assay concerns the target T7, MBP-ΔNp73α FL (UniProt O15350).
T7 sequence: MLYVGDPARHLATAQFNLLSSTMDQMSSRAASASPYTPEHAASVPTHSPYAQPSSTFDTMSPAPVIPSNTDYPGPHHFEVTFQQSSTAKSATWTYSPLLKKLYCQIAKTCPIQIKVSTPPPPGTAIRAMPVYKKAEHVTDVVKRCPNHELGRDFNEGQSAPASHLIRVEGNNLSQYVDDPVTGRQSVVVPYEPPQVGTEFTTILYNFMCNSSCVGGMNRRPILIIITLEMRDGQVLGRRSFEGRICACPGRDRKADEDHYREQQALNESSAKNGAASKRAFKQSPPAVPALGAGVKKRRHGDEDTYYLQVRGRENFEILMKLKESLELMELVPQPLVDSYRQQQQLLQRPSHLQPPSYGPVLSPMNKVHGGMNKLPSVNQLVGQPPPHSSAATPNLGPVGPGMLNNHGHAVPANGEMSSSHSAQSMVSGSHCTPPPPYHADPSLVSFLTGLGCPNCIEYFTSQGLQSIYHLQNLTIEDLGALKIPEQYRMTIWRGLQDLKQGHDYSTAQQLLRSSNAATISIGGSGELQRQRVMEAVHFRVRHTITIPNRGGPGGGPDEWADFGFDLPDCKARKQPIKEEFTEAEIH
In words: pull-down.

For another assay, the target named is T8, MBP-TAp73α FL (UniProt O15350).
T8 sequence: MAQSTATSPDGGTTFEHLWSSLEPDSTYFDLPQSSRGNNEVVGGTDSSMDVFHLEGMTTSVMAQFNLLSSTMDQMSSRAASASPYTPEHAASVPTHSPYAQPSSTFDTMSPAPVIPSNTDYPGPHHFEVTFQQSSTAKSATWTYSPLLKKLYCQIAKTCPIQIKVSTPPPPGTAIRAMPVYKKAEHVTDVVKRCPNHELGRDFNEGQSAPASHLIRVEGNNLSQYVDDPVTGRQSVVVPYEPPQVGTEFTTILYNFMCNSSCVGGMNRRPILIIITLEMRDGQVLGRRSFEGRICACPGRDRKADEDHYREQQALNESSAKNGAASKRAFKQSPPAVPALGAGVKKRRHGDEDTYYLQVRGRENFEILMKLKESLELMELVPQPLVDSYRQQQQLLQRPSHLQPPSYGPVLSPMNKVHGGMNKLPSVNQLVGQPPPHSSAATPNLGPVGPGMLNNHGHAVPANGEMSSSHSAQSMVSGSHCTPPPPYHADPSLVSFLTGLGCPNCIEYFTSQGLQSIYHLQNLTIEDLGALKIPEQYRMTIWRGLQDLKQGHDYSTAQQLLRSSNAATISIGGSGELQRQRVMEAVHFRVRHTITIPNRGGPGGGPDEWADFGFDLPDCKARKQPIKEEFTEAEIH
In words: pull-down.

This is an account of results in paper doi:10.1101/2022.10.27.514150.

No constants are given. Whether binding was seen depends on the method and setting. In cells and extracts the contact can be indirect. Some binding calls cover weakened binding; strength is not graded here. For part of these data: Sequences can lack the tags named with a protein.

In the case of “Gluc2-E2F4 FL (from UniProt Q16254 1-413)”, the binding result with Gluc1-ΔN(262–348) is “binds”; with Gluc1-ΔN(14–348) it was “binds”; with Gluc1-TAp63α it was “no binding”; in the assay with Gluc1-ΔN(1–348), “binds”.

Consider “Gluc2-E2F(89–196) (from UniProt Q16254 89-196) (domain or fragment)”, for which the binding result with Gluc1-ΔNp73α FL is on record as “binds”.

In the case of “Gluc2-E2F(1–196) (from UniProt Q16254 1-196) (domain or fragment)”, the binding entry with Gluc1-ΔNp73α FL is “binds”.

For Gluc2-p130 (from UniProt Q08999 1-1139), the binding result with Gluc1-ΔNp73α FL and with Gluc1-TAp63α was “no binding” throughout.

In the case of Gluc1-16.E7 (from UniProt P03129 1-98), the binding result with Gluc2-p107, with Gluc2-p130 (human) and in the assay with Gluc2-pRb was “binds” throughout.

Regarding Gluc2-DP1 (from UniProt Q14186 1-410), the binding result with Gluc1-ΔNp73α FL and with Gluc1-TAp63α was “no binding” throughout.

With “3xFlag-E2F4 FL (from UniProt Q16254 1-413)”, the binding result with MBP-ΔNp73α FL and with MBP-TAp73α FL was “binds” in each case.
